This data set has as its system UDP-glucuronosyl transferase. As to conditions: morphine 0.1 to 7.5 mM, HLM 0.5 mg/mL, 30 min, Michaelis-Menten.

Read-outs that look alike come from different tables or passages of the source.

One may read the Km as the concentration of substrate that gives half-maximal velocity.

For the compound `CN1CC[C@]23c4c5ccc(O)c4O[C@H]2[C@@H](O)C=C[C@H]3[C@H]1C5` [Morphine], the Km is, setting by setting: (read-out: Km (M3G)) 2590 µM; (read-out: Km (M6G)) 2110 µM.

Values taken from patent publication EP2545915A1, “2-amino-2-oxoethyl trans-3-[5-(6-methoxy-naphtalen-1-yl)-1,3-dioxan-2-yl]propyl-carbamate for use in the treatment of persistent cancer pain” (SANOFI, priority 2011, dated 2013).
